Source: the supplement of paper PMC8497498
The other results are listed elsewhere or left out. The data scatter; read single values as rough.

Assays:
Conditions in all cases: 10 µM
[1] = tested on: Plasmodium vivax liver stage (primary human hepatocyte culture); experiment: hypnozoite quantity inhibition (% inhibition); higher = more active against hypnozoites
[2] = tested on: Plasmodium vivax liver stage (primary human hepatocyte culture); experiment: schizont net growth area inhibition (% inhibition); higher = more active against liver schizonts
[3] = tested on: primary human hepatocytes; experiment: hepatic nuclei reduction relative to DMSO (100 - % of negative control); higher = more toxic to hepatocytes
[4] = assay mode: Prophylactic (treated before or shortly after infection), fixed day 6 post-infection
[5] = assay mode: Radical Cure (treated from day 5 post-infection for 3 days), fixed day 8 post-infection

Row | Structure (SMILES) | hypnozoite quantity inhibition [1, 4] | hypnozoite quantity inhibition [1, 5] | schizont net growth area inhibition [2, 4] | schizont net growth area inhibition [2, 5] | hepatic nuclei reduction [3, 4] | hepatic nuclei reduction [3, 5]
1 | CN1CCN(c2ccc(Nc3c4ccccc4nc4ccccc34)cc2)CC1 | 74.5 | 31.3 | 103 | 64.4 | 4% | 13%
2 | Cc1[nH]c2ccccc2c1C(c1cccs1)N1CCN(C)CC1 (stereo unspecified) | 15 | 3 | 12.9 | -6 | 1% | 10%
3 | CCOc1ccc2nc(C)cc(Nc3ccc(Br)cc3)c2c1 | -5 | 35.9 | -3.4 | 28.3 | -4% | -11%
4 | CC(C)CNC(=O)c1c(N)n(CCc2ccccc2F)c2nc3ccccc3nc12 | -23.6 | 35.9 | 23.7 | 14.1 | -13% | -3%
5 | Cc1ccnc(NC(c2cccc(OCc3ccccc3)c2)c2ccc3cccnc3c2O)c1 (stereo unspecified) | -7.2 | 33.6 | 86.6 | 7.5 | -16% | 14%
6 | Cc1cc(C)cc(Nc2cc(C)nc3nc(C(F)(F)F)nn23)c1 | -8.7 | 40.5 | 18.5 | 26.7 | -8% | 2%
7 | Nc1ncnc2[nH]nc(Cc3cccc4ccccc34)c12 | -76 | -5 | -146 | -31.7 | -6% | 3%
8 | CCn1c(CN2CCN(Cc3ccccc3)CC2)nc2cc(NC(=O)c3cccs3)ccc21 | 48 | 18.3 | 96.3 | -67.6 | 1% | -9%
9 | Fc1ccc2[nH]c3c(NCCCN4CCOCC4)ncnc3c2c1 | -14.7 | 24.4 | -13.3 | 11.5 | -4% | 9%
10 | CC(=O)NCCc1nc2ccccc2n1Cc1ccc(C(C)C)cc1 | 7 | 1.9 | 41.2 | 5.9 | 5% | -5%
11 | Cc1nc(-c2ccccn2)nc(N2CCC(Cc3ccccc3)C2)c1Cl (stereo unspecified) | 52 | -15 | 7.1 | -38.3 | 3% | 1%
12 | COc1cc(SC)ccc1C(=O)N1CCCC(C)C1 (stereo unspecified) | -28.8 | 29 | -20.4 | -48.7 | -6% | 0%
13 | c1coc(CNc2nc(N3CCCCC3)nc3ccccc23)c1 | -96 | 32 | 29.7 | -121 | -1% | 10%
14 | Oc1ccc2ccccc2c1CNc1nc2ccccc2[nH]1 | 13.3 | 40.1 | -6.3 | 27.3 | 1% | -3%
15 | Clc1ccc(CN2CCN(C3=NCCN3)CC2)cc1Cl | 35 | -25 | -25.5 | -119 | 2% | -6%
16 | c1ccc(-c2nc(NC3CCCCC3)cc(C3CC3)n2)nc1 | -41 | -41 | 93.4 | -31.6 | -4% | 1%
17 | O=C(Nc1ccsc1C(=O)NC1CCCCC1)c1ccc(F)cc1 | -26.6 | 8.4 | -33.2 | 29.9 | -4% | -5%
18 | O=C(Nc1ccc(N2CCCCC2)c(Cl)c1)c1ccc(Br)o1 | 31.6 | 23.7 | -11.6 | -37.2 | -9% | -10%
19 | O=C(Nc1ccc(CN2CCOCC2)cc1)c1ccc(-c2ccc(Br)cc2)o1 | -6.3 | 23.7 | -3.3 | -80.5 | -3% | -7%

Row | Structure (SMILES) | hypnozoite quantity inhibition [1, 4] | hypnozoite quantity inhibition [1, 5] | schizont net growth area inhibition [2, 4] | schizont net growth area inhibition [2, 5] | hepatic nuclei reduction [3, 4] | hepatic nuclei reduction [3, 5]
20 | COc1cccc(C(=O)NC(c2ccc(C)cc2)c2cc(Cl)c3cccnc3c2O)c1 (stereo unspecified) | -48.1 | -5.3 | 103 | -73.6 | -8% | -12%
21 | COc1cc2ncnc(NC3CCN(Cc4ccccc4)CC3)c2cc1OC | -83 | -23 | 34.4 | -62.9 | 9% | 3%
22 | Cc1cc(N(C)C)nc(Nc2ccc(NC(=O)Nc3ccccc3)cc2)n1 | 35.4 | 7.4 | 100 | 49 | 0% | -11%
23 | Cc1cc(N2CCCC2)nc(Nc2ccc(NC(=O)CCc3ccccc3)cc2)n1 | -11.4 | 59.1 | 50.4 | -9.6 | 13% | -14%
24 | COc1ccc(-c2cnc3ccc(N4CCCC4)nn23)cc1OC | -11 | -10 | 106 | 103 | -15% | -2%
25 | COc1ccc(-c2onc(C(F)(F)F)c2-c2ccc(Cl)cc2)c(O)c1 | -7 | -10 | -69.3 | -3.3 | -5% | -4%
26 | CCCCCCc1cc2cc(-c3csc(C=Cc4ccccc4)n3)c(=O)oc2cc1O | 3.2 | 35.9 | 34.8 | 21.3 | -47% | 9%
27 | COc1ccc(OC)c(C2C3=C(CC(C)(C)CC3=O)N(c3ccc(Cl)c(Cl)c3)C3=C2C(=O)CC(C)(C)C3)c1 | 27.8 | 53.7 | -37.4 | -2.6 | 0% | -7%
28 | COc1ccc(-c2cn3c(C(=O)Nc4ccccc4Cl)c(-c4ccccc4)c4c3n2CCCC4)cc1 | -19.1 | 22.1 | 25.4 | -11.7 | -24% | -3%
29 | COc1cncc(-c2cncc(N3CCN(c4ccncc4)CC3)n2)c1 | -85 | -20 | -3.7 | -64.9 | -10% | -5%
30 | Nc1ccc(S(=O)(=O)c2ccc(N)cc2)cc1 | 0 | 20 | -78.7 | -5 | -8% | -1%
31 | N=c1c2ccccc2nnn1-c1cccc(C(F)(F)F)c1 | -3.2 | 31.9 | 32.2 | -1.6 | 2% | -5%
32 | COc1ccc(C2NCCc3c2[nH]c2ccccc32)cc1CN1CCN(c2ccc(F)cc2)CC1 (stereo unspecified) | 29.2 | 33.6 | 47.4 | 53.6 | 30% | -6%
33 | Clc1ccc(Cl)c(CO[C@H]2CCCC[C@@H]2n2ccnc2)c1 | -11 | -51 | -20.4 | -116 | -4% | -21%
34 | Cc1ncc(-c2ccnc(Nc3ccc(S(C)(=O)=O)cc3)n2)n1C(C)C | 46 | 19 | 102 | 89.4 | 22% | 9%
35 | CCC(=O)Nc1nnc(Cc2ccc(OC)c(OC)c2)s1 | -28.1 | 19.8 | -16 | -3.6 | -15% | 4%
36 | CCN(CCO)CCCC(C)Nc1ccnc2cc(Cl)ccc12 (stereo unspecified) | -26 | 60 | -4.4 | 83.3 | 2% | -1%
37 | O=C(Nc1ccc(Br)cc1)Nc1cccc(Cl)c1 | -7 | 10.1 | 50.5 | 26 | -3% | -7%
38 | CC(=O)NCC1CN(c2ccc(-c3ccc(CO)cc3)c(F)c2)C(=O)O1 (stereo unspecified) | 20 | -15 | -8 | -65.6 | -3% | -8%

A stretch taken from the entries so far, as a working copy:
Row | Structure (SMILES) | hypnozoite quantity inhibition [1, 4] | hypnozoite quantity inhibition [1, 5] | schizont net growth area inhibition [2, 4] | schizont net growth area inhibition [2, 5] | hepatic nuclei reduction [3, 4] | hepatic nuclei reduction [3, 5]
25 | COc1ccc(-c2onc(C(F)(F)F)c2-c2ccc(Cl)cc2)c(O)c1 | -7 | -10 | -69.3 | -3.3 | -5% | -4%
26 | CCCCCCc1cc2cc(-c3csc(C=Cc4ccccc4)n3)c(=O)oc2cc1O | 3.2 | 35.9 | 34.8 | 21.3 | -47% | 9%
27 | COc1ccc(OC)c(C2C3=C(CC(C)(C)CC3=O)N(c3ccc(Cl)c(Cl)c3)C3=C2C(=O)CC(C)(C)C3)c1 | 27.8 | 53.7 | -37.4 | -2.6 | 0% | -7%
28 | COc1ccc(-c2cn3c(C(=O)Nc4ccccc4Cl)c(-c4ccccc4)c4c3n2CCCC4)cc1 | -19.1 | 22.1 | 25.4 | -11.7 | -24% | -3%
29 | COc1cncc(-c2cncc(N3CCN(c4ccncc4)CC3)n2)c1 | -85 | -20 | -3.7 | -64.9 | -10% | -5%
30 | Nc1ccc(S(=O)(=O)c2ccc(N)cc2)cc1 | 0 | 20 | -78.7 | -5 | -8% | -1%
31 | N=c1c2ccccc2nnn1-c1cccc(C(F)(F)F)c1 | -3.2 | 31.9 | 32.2 | -1.6 | 2% | -5%
32 | COc1ccc(C2NCCc3c2[nH]c2ccccc32)cc1CN1CCN(c2ccc(F)cc2)CC1 (stereo unspecified) | 29.2 | 33.6 | 47.4 | 53.6 | 30% | -6%
33 | Clc1ccc(Cl)c(CO[C@H]2CCCC[C@@H]2n2ccnc2)c1 | -11 | -51 | -20.4 | -116 | -4% | -21%
34 | Cc1ncc(-c2ccnc(Nc3ccc(S(C)(=O)=O)cc3)n2)n1C(C)C | 46 | 19 | 102 | 89.4 | 22% | 9%
35 | CCC(=O)Nc1nnc(Cc2ccc(OC)c(OC)c2)s1 | -28.1 | 19.8 | -16 | -3.6 | -15% | 4%

Additional results:

Row | Structure (SMILES) | hypnozoite quantity inhibition [1, 4] | hypnozoite quantity inhibition [1, 5] | schizont net growth area inhibition [2, 4] | schizont net growth area inhibition [2, 5] | hepatic nuclei reduction [3, 4] | hepatic nuclei reduction [3, 5]
39 | COc1ccc(N2CCN(C(CNC(=O)CC(C)(C)C)c3ccc4c(c3)OCO4)CC2)cc1 (stereo unspecified) | -40.7 | 15.3 | 27.3 | 2.8 | -12% | -2%
40 | CNC(=O)CNc1nc(-c2ccccn2)nc2scc(-c3ccccc3)c12 | 42 | 27 | 47.2 | -36.9 | 5% | -1%
41 | CCC(C)NCC(O)(c1ccc(Cl)cc1)c1ccc(Cl)cc1 (stereo unspecified) | -0.6 | 40.1 | -9.3 | -8 | 2% | -7%
42 | COc1ccc(C(=N)N)cc1-c1cn(-c2ccc(C(=N)N)cc2)nn1 | 29 | -4 | 46.3 | -8.4 | 15% | 4%
43 | Cc1ccc(NC(=O)CC2COc3ccccc3O2)cc1Cl (stereo unspecified) | -16 | -36 | 22.9 | -66.4 | -7% | -5%
44 | COCC(C)NC(=O)CSc1ncnc2sc(-c3ccccc3)cc12 (stereo unspecified) | 34 | 11 | 14.8 | 8.4 | 0% | -2%
45 | CC(Oc1cccc(Cl)c1)C(=O)Nc1ccc2oc(-c3ccncc3)nc2c1 (stereo unspecified) | -27 | -23 | 18.1 | -25.2 | 1% | 3%
46 | COc1ccc(N(CCc2cccc(C)n2)C(=O)C2CCCCC2)cc1 | 2 | 31 | -37.2 | 6.6 | -4% | -1%
47 | CC1CCCCN1C(=O)NCCc1coc(-c2ccc(F)cc2)n1 (stereo unspecified) | 4 | 9 | 47.5 | 11.1 | -7% | -6%
48 | CS(=O)(=O)c1cccc(-c2cnc3[nH]cc(-c4ccc(CCC(=O)O)cc4)c3c2)c1 | 94 | 6 | 102 | 111 | -9% | -9%
49 | CCCNC(=O)N1CCC2(CC1)CC(=O)c1cc(C)ccc1O2 | -5 | -60 | -58 | -24.6 | -6% | -4%
50 | O=C(NC1CC1)c1ccc(N2CCOc3ccc(Cl)cc32)s1 | 21 | -67 | 22.2 | -51 | -1% | -3%
51 | Cc1cnc(CCNC(=O)c2cc(-c3ccc(Cl)cc3)cs2)[nH]1 | 14 | 9 | 39.5 | -30.5 | -1% | -9%
52 | O=C(Nc1nnc(S)s1)c1cc(Br)ccc1Cl | -7 | 0 | 9.4 | 40.5 | -7% | -2%
53 | CCC(c1ccccc1)c1nn2c(-c3cccs3)nnc2s1 (stereo unspecified) | 9.1 | 47.3 | 91.5 | -65.4 | -12% | 4%
54 | C=C(C)CCC(C)N1CCC(N2CCC(C(=O)NCCc3ccccc3)CC2)CC1 (stereo unspecified) | -24.3 | 61.1 | 8.9 | 31.9 | -15% | 3%
55 | O=C1CC(O)(C(F)(F)C(F)(F)F)Oc2ccccc21 (stereo unspecified) | -13.9 | 56.5 | 77.8 | 40.5 | -5% | 5%
56 | CN(C)CCNC(=O)N1CCCN(c2ncnc3cc(-c4ccccc4)sc23)CC1 | -2 | -5 | 0.5 | -44.4 | -8% | -2%
